Key:
[1] = system: MYL-R; assay: cells; details: 72 h, read-out: IC50 MYL-R
Experimental: The CML cell line (BV173, MYL, Ba/F3 BCR-ABL^WT) and the TKI-resistant CML cell line (MYL-R, Ba/F3 BCR-ABL^T315I) in the Table below were seeded in 96-well plates at 3,000-7,000 cells/100 μL/well in a culture solution (10% FBS and RPMI-1640) and cultured under 5% CO2 gas flow at 37° C. for about 3 hours. Then, 100 μL of each compound diluted with the culture solution to 50-0.05 μM MYL, Ba/F3 BCR-ABL^WT, MYL-R, Ba/F3 BCR-ABL^T315I and 500 nM-0.1 nM BV173 was added to the above 96-well plates and cultured for 24 hours, followed by centrifugation (4° C., 1500 rpm, 5 minutes). The supernatant of the culture solution was discarded. […] After further culturing for 24 hours (72 hours totally) and reaction using CCK-8 reagent (DOJINDO, CK04) according to its attached instruction, the absorption at 450 nm and 620 nm (blank) of each well was determined with a plate reader (Varioskan Flash, Thermo-Fisher Scientific Co. Ltd.). The values of the wells without sample treatment were taken as 100%, and those of the wells treated with the samples were expressed as relative values. The values of IC50 (μm) were calculated (see Table 3-1). In addition, IC50 ratio of MYL-R cell line to MYL cell line and that of Ba/F3 BCR-ABL^T315I cell line to Ba/F3 BCR-ABL^WT cell line were calculated (see Table 3-2). […]

[2] = system: MYL; assay: cells; details: 72 h, read-out: IC50 MYL
Experimental: The CML cell line (BV173, MYL, Ba/F3 BCR-ABL^WT) and the TKI-resistant CML cell line (MYL-R, Ba/F3 BCR-ABL^T315I) in the Table below were seeded in 96-well plates at 3,000-7,000 cells/100 μL/well in a culture solution (10% FBS and RPMI-1640) and cultured under 5% CO2 gas flow at 37° C. for about 3 hours. Then, 100 μL of each compound diluted with the culture solution to 50-0.05 μM MYL, Ba/F3 BCR-ABL^WT, MYL-R, Ba/F3 BCR-ABL^T315I and 500 nM-0.1 nM BV173 was added to the above 96-well plates and cultured for 24 hours, followed by centrifugation (4° C., 1500 rpm, 5 minutes). The supernatant of the culture solution was discarded. […] After further culturing for 24 hours (72 hours totally) and reaction using CCK-8 reagent (DOJINDO, CK04) according to its attached instruction, the absorption at 450 nm and 620 nm (blank) of each well was determined with a plate reader (Varioskan Flash, Thermo-Fisher Scientific Co. Ltd.). The values of the wells without sample treatment were taken as 100%, and those of the wells treated with the samples were expressed as relative values. The values of IC50 (μm) were calculated (see Table 3-1). In addition, IC50 ratio of MYL-R cell line to MYL cell line and that of Ba/F3 BCR-ABL^T315I cell line to Ba/F3 BCR-ABL^WT cell line were calculated (see Table 3-2).

IC50 [1]: 2980 nM | IC50 [2]: 280 nM
Compound: Cc1ccc(NC(=O)c2ccc(CN3CCN(C)CC3)cc2)cc1Nc1nccc(-c2cccnc2)n1 [Imatinib, reference compound]

From patent US12472196B2, “Use of DNMT inhibitor” (priority 2019, dated 2025)
